Assay results reported in patent US20040097432A1, “Method of reducing cholesterol” (ACCESS BUSINESS GROUP INTERNATIONAL LLC., priority 2002, published 2004).

Tested on: HepG2 hepatocytes
Assay: Inhibition of cholesterol synthesis in HepG2 hepatocytes (secreted cholesterol and cholesteryl ester, AmplexRed)
Format: cell-based
Settings: Homo sapiens, 0.014 mg/ml Atorvastatin, as contained in 0.2 mg/ml Lipitor tablet, FIG. 1, read-out: inhibitory effect (cholesterol synthesis/release)
Experimental: HepG2 hepatocytes were used as a model to study the inhibition of cholesterol synthesis according to the procedures described in Dashti, N., et al., J. Lipid Res. 28:423-436 (1987) and Mohammadi, A., et al., Arterioscler. Thromb. Vasc. Biol., […]:783-793 (1998). […] Amounts of secreted cholesterol and cholesteryl ester are measured from acetate fed hepatocyte culture media using a fluorescent indicator AmplexRed.
The same cholesterol inhibition model used in Example I was used to determine the cholesterol synthesis inhibition of theaflavins, including theaflavin and gallate esters of theaflavin.

Structure (SMILES): CC(C)c1c(C(=O)Nc2ccccc2)c(-c2ccccc2)c(-c2ccc(F)cc2)n1CC[C@@H](O)C[C@@H](O)CC(=O)O [Atorvastatin, reference compound]
- inhibition at 14 µg/mL: ~30%
